From patent publication US20210347821A1
No constants are given. Whether binding was seen depends on the method and setting. Some results given as binding are weak or reduced against the parent protein; the word gives no strength.

Sequences of proteins named here, by UniProt entry; tags and fusion partners are left off.
UniProt Q9EP80: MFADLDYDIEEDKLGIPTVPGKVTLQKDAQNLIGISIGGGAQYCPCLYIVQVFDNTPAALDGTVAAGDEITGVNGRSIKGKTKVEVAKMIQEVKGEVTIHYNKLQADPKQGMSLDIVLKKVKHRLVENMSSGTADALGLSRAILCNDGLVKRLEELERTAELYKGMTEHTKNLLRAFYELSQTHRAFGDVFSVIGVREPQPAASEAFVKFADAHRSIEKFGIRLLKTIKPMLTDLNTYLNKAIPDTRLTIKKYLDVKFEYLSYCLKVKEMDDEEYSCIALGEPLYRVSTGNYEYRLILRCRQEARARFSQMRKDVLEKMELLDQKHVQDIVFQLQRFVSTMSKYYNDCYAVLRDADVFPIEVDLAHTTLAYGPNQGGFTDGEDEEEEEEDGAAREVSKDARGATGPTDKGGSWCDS

Target: Protein Interacting with C Kinase-1 (PICK1), purified recombinant (UniProt Q9EP80)
Assay: fluorescence polarization competition, tracer 5FAM-DATC5

Binder | binding
IWLKV [C5 peptide with X1 substituted to I] | binds
HFLKV [C5 peptide with X2 substituted to F] | binds
AWLKV [C5 peptide with X1 substituted to A] | binds
LWLKV [C5 peptide with X1 substituted to L] | binds

The remaining lines, values ahead:

binding | Binder
binds | HWIKV [C5 peptide with X3 substituted to I]
binds | HWVKV [C5 peptide with X3 substituted to V]
binds | HWLRV [C5 peptide with X4 substituted to R]
